# Data as given in paper PMC7277541, “Antimicrobial and Antifungal Activities of Terpene-Derived Palladium Complexes” (Antibiotics, 2020).
# Legend:
# [1] = test system: C. neoformans var. grubii H99 ATCC 208821; assay: Antifungal MIC assay, C. neoformans; assay type: cell-based, Cryptococcus neoformans; conditions: for Selectivity Index (SI) C. neoformans CC50/MIC: CC50 against HEK293 divided by MIC C. neoformans var grubii H99 ATCC 208821; for Selectivity Index (SI) C. neoformans HC10/MIC: HC10 human red blood cells divided by MIC C. neoformans var grubii H99 ATCC 208821
# Description: Screening against bacteria and yeasts for antimicrobial activity and toxicity against mammalian cells was performed in duplicate (n = 2). […] Becton Dickinson 242720) agar at 30 °C. A yeast suspension of 1 × 10^6 to 5 × 10^6 CFU/mL (as determined by OD530) was prepared from five colonies form the agar plates, and subsequently diluted with Yeast Nitrogen Base media (YNB; Becton Dickinson 233520), and added to each well of the compound containing plates (384-well plates, NBS; […] Plates were covered and incubated at 35 °C for 36 h without shaking. […] Fluconazole (Sigma Aldrich, F8929) was used as a positive inhibitor control on each plate for both strains.
# [2] = test system: S. aureus (MRSA) ATCC 43300; assay: Antibacterial MIC assay, S. aureus (MRSA); assay type: cell-based, Staphylococcus aureus; conditions: for Selectivity Index (SI) S. aureus (MRSA) CC50/MIC: CC50 against HEK293 divided by MIC S. aureus ATCC 43300; for Selectivity Index (SI) S. aureus (MRSA) HC10/MIC: HC10 human red blood cells divided by MIC S. aureus ATCC 43300
# Description: Dry compounds were dissolved in dimethyl sulfoxide (DMSO), and serially diluted 2-fold to produce an 8-point dose response with DMSO/water and then added into microtiter plates with a final DMSO concentration of 0.5%, providing a concentration range of 0.25 to 32 μg/mL. Screening against bacteria and yeasts for antimicrobial activity and toxicity against mammalian cells was performed in duplicate (n = 2).
# For the bacterial assays, each bacterial strain was cultured in Cation-Adjusted Mueller Hinton Broth (CAMHB; Bacto Laboratories 212322) at 37 °C overnight. Bacterial strains tested were methicillin resistant S. aureus (methicillin-resistant Staphylococcus aureus - MRSA) ATCC 43300, E. coli ATCC 25922, K. pneumoniae K6/ESBL ATCC 700603, P. aeruginosa ATCC 27853, A. baumannii ATCC 19606. A sample of each culture was then diluted 40-fold in fresh CAMHB and incubated at 37 °C for 1.5–3 h. The resultant mid-log phase cultures were diluted with CAMHB (CFU/mL measured by OD600), then added to each well of the compound-containing plates (384-well non-binding surface (NBS) plates; Corning CLS3640), giving a final cell density of 5 × 10^5 CFU/mL and a total volume of 50 μL. Plates were covered and incubated at 37 °C for 18 h without shaking. Inhibition of bacterial growth was determined by measuring absorbance at 600 nm (OD600), using media only as negative control and bacteria without inhibitors as positive control. MIC values were determined as the lowest concentration at which the growth was inhibited by ≥ 80% (equivalent to no visible growth by eye). Colistin sulfate (Sigma Aldrich, Castle Hill, Australia C4461) and vancomycin HCl (Sigma Aldrich, 861987) were used as positive inhibitor controls on each plate for Gram-negative and Gram-positive bacteria, respectively.
Structure (SMILES),Selectivity Index (SI) C. neoformans CC50/MIC [1],Selectivity Index (SI) C. neoformans HC10/MIC [1],Selectivity Index (SI) S. aureus (MRSA) CC50/MIC [2],Selectivity Index (SI) S. aureus (MRSA) HC10/MIC [2]
"C[C@H](N[C@@H]1C[C@H]2C[C@H](C2(C)C)[C@@]1(C)O)c1cccc[c]1[Pd]([Cl])[P](c1ccccc1)(c1ccccc1)c1ccccc1 [Compound 5, (+)-trans-Chloro{(1R,2R,3R,5R)-3-((S)-1′-phenylethylamino)-2,6,6-trimethylbicyclo[3.1.1]heptane-2-ol-C,N}(triphenylphosphine)palladium(II)]",2.9,5.6,0.2,0.4
C[C@H](N=C1C[C@H]2C[C@H](C2(C)C)[C@@]1(C)O)c1cccc[c]1[Pd][Cl].C[C@H](N=C1C[C@H]2C[C@H](C2(C)C)[C@@]1(C)O)c1cccc[c]1[Pd][Cl] [Compound 1],23.8,7.8,3.0,1.0
